Measurements from EP0560983B1, “New DNA sequence” (priority 1991, dated 1993).
At least one compound was matched to its structure with a doubt left.

Test system: cholesterol oxidase II
Assay: Substrate specificity (relative activity on each substrate)
Assay type: biochemical, Brevibacterium sterolicum ATCC 21387
Procedure: The working pH range was determined by assaying the activity at each pH (phosphate buffer, Tris-HCl buffer, sodium acetate buffer) after the reaction at 37°C for 5 minutes. […] The pH range is determined by treating the enzyme at 50°C for 60 minutes at each pH (phosphate buffer, Tris-HCl buffer, sodium acetate buffer) and then assaying the residual activity. Method for determination of titer The amount of enzyme which catalyzes the reaction of decomposing 1 µmole of cholesterol at 37°C for one minute in the presence of oxygen is defined as one unit. The titer is determined as follows. […] Absorption of the thus formed quinoneimine pigment in the visible region is measured to determine the amount of hydrogen peroxide generated. Thus, the titer of the enzyme is determined. […] Then, absorbance is measured at 500 nm (OD 500 nm). • (c) Calculation of titer One unit of cholesterol oxidase II corresponds to an enzyme activity which decomposes 1 µmole of cholesterol at 37°C for 1 minute. […] After heat treatment at pH of 7.0 for 60 minutes in 0.05 M phosphate buffer, the residual activity was determined. […] Reaction rates of the two enzymes were measured in various concentrations of cholesterol. […] Michealis' constant was determined from the Line weaver-Burk plot [refer to J. Am. […] The amino acid sequence of each digested fragment may be analyzed according to the conventional method, with the amino acid sequencer.

Compound: C[C@]12CC[C@@H]3c4ccc(O)cc4CC[C@H]3[C@@H]1CC[C@@H]2O [Estradiol]
- Relative Activity (%) (activity of cholesterol oxidase II on each substrate, cholesterol = 100): 3.2%
- Substrate specificity (whether cholesterol oxidase II acts on the substrate, in words): acts on
